No constants are given. Whether binding was seen depends on the method and setting. Some entries that bind do so weakly or less than the wild type.

In the assay the target is PDL1-Fc fusion protein (human). The assay is described as follows: ELISA, PDL1-Fc coated.

B1: PDL1-87 dAb (VHH, not shown: small tags and cut ends)
VHH: QVQLQESGGGSVQAGGSLKLSCAASGYIFSSCGMGWYRQAPGKERELVSTISSDGTTSYADSVKGRFTISQDNAKNTLYLQMNSLKTEDTAVYYCVADCPPIPEFTSCSGGYCLSGDYWGQGTQVTVSS
On to B1, for which the binding entry is “binds”.

B2: PDL1-38 dAb (VHH, not shown: small tags and cut ends)
VHH: QVQLQESGGGSVQAGGSLRLSCAVSGFISSRRCMGWFRQAPGKERVGVANITGTGNTYLADSVKGRFTISQNNAKSTVYLQMNSLKPEDTAMYYCAADSFPTCTVVASSGAFQYWGQGTQVTVSS
As to B2, the binding result is reported as “binds”.

For the origin of these results see US20180327494A1.
